Laboratory results published in PubChem BioAssay AID504467 (National Center for Advancing Translational Sciences (NCATS), 2011).
About 7,700 (2.3%) of roughly 330,000 compounds were called active. The inconclusive results got no clear call from the source; some entries with a clear call stand among them for comparison. Calls come from the whole dose curve; as a rule, active = well fitted inhibition curve with a large enough effect; inconclusive = small, poorly fitted or top-dose-only effect, or effect the other way; inactive = flat fitted curve, though single readings scatter. Potencies beside an inconclusive call are fits to weak or partial responses and may not hold up.

assay: qHTS screen for small molecules that inhibit ELG1-dependent DNA repair in human embryonic kidney (HEK293T) cells expressing luciferase-tagged ELG1; settings: HEK293T ELG1-luciferase reporter, luminescence, 16 h, DNA damage induced by 5-fluorouridine; series mostly up to 46.1 µM; note: nearly all actives have a fitted effect of over 55% in size
How it was run: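 Cells (2,000 per well) received 5-fluorouridine plus test compound or DMSO and were incubated 16 hr at 37 °C, 5% CO2. Luciferase activity was read by luminescence 30 min after ONE-Glo addition; signal suppression marked inhibition of damage-induced ELG1 function.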
Potency is the fitted concentration of half-maximal effect.

Which Potency does the source give for `COc1ccc(C(=O)Nc2ccccc2C)cc1S(=O)(=O)N1CCOCC1` here?
The Potency was “inactive”.

Which Potency does the source give for `COc1ccc(OC)c(NC(=O)C(C)SCc2nc3sc(C)c(C)c3c(=O)[nH]2)c1` (stereo unspecified) here?
Its Potency is inconclusive: 29.1 µM [inhibitor, single point].

With `CCn1nc(C(=O)OCC(=O)c2ccc(F)cc2)c2ccccc2c1=O` as the compound, how does the Potency read?
The Potency was “inactive”.

For `Cc1noc(C)c1COC(=O)c1ccc(F)c(S(=O)(=O)N2CCOCC2)c1`, which Potency is on record?
Its Potency is “inactive”.

Which Potency does the source give for `O=C(CCSc1ccccc1)Nc1nccs1` here?
Its Potency is inconclusive: 20.6 µM [activator, partial curve, poor fit].

Which Potency does the source give for `CS(=O)(=O)CCC(C(=O)O)N1C(=O)c2ccc(Oc3ccc(Cl)cc3)cc2C1=O` (stereo unspecified) here?
Its Potency is “inactive”.

With `Cc1nc(NC(=S)NC(=O)c2ccccc2)sc1C` as the compound, how does the Potency read?
Its Potency is inconclusive: 3.66 µM [activator, partial curve].

With `Fc1ccc(-c2cnc[nH]2)cc1` as the compound, how does the Potency read?
Its Potency is inconclusive: 20.6 µM [activator, partial curve].

For `O=C(c1cccs1)c1ccc(-c2cccs2)s1`, which Potency is on record?
The Potency was inconclusive: 2.06 µM [activator, full curve].

Which Potency does the source give for `Cc1cc(=O)oc2cc(OCC(=O)N3CCN(C(=O)C4COc5ccccc5O4)CC3)c(Cl)cc12` (stereo unspecified) here?
Its Potency is inconclusive: 1.83 µM [inhibitor, full curve, poor fit].

For `Cc1ccc(CNC(=O)C(C(=O)NCc2ccc(C)o2)c2ncc(C(F)(F)F)cc2Cl)o1`, which Potency is on record?
Its Potency is “inactive”.

For `O=C(NCC1COc2ccccc2O1)c1cccs1` (stereo unspecified), which Potency is on record?
The Potency was inconclusive: 20.6 µM [activator, partial curve].

Which Potency does the source give for `CCN(C(=O)CSc1nccc(=O)[nH]1)c1cccc2ccccc12` here?
The Potency was inconclusive: 29.1 µM [activator, single point].

With `CN(Cc1ccccc1F)C(=O)c1ccc2c(=O)n3c(nc2c1)CCC3` as the compound, how does the Potency read?
Its Potency is “inactive”.

Which Potency does the source give for `CCCSc1nnc(Cn2c(=O)sc3ccccc32)n1-c1ccccc1` here?
Its Potency is inconclusive: 29.1 µM [inhibitor, single point].

For `O=C(COc1cccnc1[N+](=O)[O-])c1ccc(Cl)s1`, which Potency is on record?
The Potency was “inactive”.

Which Potency does the source give for `COc1ccccc1C(=O)OCC(=O)Nc1ccc(Cl)cn1` here?
Its Potency is inconclusive: 29.1 µM [activator, single point].

For `CCCn1nc(C(=O)Nc2ccc3c(c2)OCCO3)c2ccccc2c1=O`, which Potency is on record?
Its Potency is inconclusive: 29.1 µM [inhibitor, single point].

For `COc1ccc(NC(=O)c2ccc(NC(=O)C3CC3)cc2)cc1`, which Potency is on record?
The Potency was inconclusive: 29.1 µM [activator, single point].

With `C#CCONC(=O)c1cc(OCC(F)(F)F)ccc1OCC(F)(F)F` as the compound, how does the Potency read?
Its Potency is “inactive”.

With `Cc1cccc(NC(=O)c2ccc(S(=O)(=O)N3CCC(C)CC3)cc2)n1` as the compound, how does the Potency read?
Its Potency is inconclusive: 7.3 µM [inhibitor, partial curve].

With `Cc1cc(C)c2c(N)c(C(=O)c3ccc(Cl)cc3Cl)sc2n1` as the compound, how does the Potency read?
Its Potency is active: 10.3 µM.

Which Potency does the source give for `CC(C)c1ccc(-n2cnn(-c3ncccc3[N+](=O)[O-])c2=O)cc1` here?
Its Potency is inconclusive: 1.16 µM [activator, full curve].

For `Cc1cc(C(=O)CSc2nnnn2C)c(C)n1-c1ccc2c(c1)OCCO2`, which Potency is on record?
The Potency was inconclusive: 5.17 µM [activator, partial curve, poor fit].

For `Nc1nnc(SCCCC(=O)c2ccc(F)cc2)s1`, which Potency is on record?
Its Potency is inconclusive: 20.6 µM [activator, partial curve, poor fit].

With `COc1ccc2c(=O)c3c(=O)n(-c4ccccc4)c(-c4ccc(C)cc4)nc3oc2c1` as the compound, how does the Potency read?
The Potency was inconclusive: 32.6 µM [activator, partial curve, poor fit].

Which Potency does the source give for `CCCCNC(=O)CSc1nc2ccc(N3CCOCC3)cc2c(=O)n1CCc1ccccc1` here?
Its Potency is inconclusive: 20.6 µM [inhibitor, single point].

With `CN(Cc1ccccc1)CC1CCCN(CCc2ccccc2F)C1` (stereo unspecified) as the compound, how does the Potency read?
Its Potency is “inactive”.

For `CCC(C)NCCOCCOc1ccc(F)cc1` (stereo unspecified), which Potency is on record?
Its Potency is “inactive”.

For `O=C(COC(=O)C(O)c1ccccc1)c1ccc2c(c1)OCCO2` (stereo unspecified), which Potency is on record?
Its Potency is inconclusive: 13 µM [activator, partial curve].

With `COC(=O)C(NNc1ccccc1C)(NC(=O)c1ccc(F)cc1)C(F)(F)F` (stereo unspecified) as the compound, how does the Potency read?
The Potency was “inactive”.

With `COc1ccc(Nc2cc(C(=O)NCCCOC(C)C)c3ccccc3n2)c(OC)c1` as the compound, how does the Potency read?
The Potency was inconclusive: 16.4 µM [inhibitor, partial curve].

With `O=C(CCC(=O)Nc1cccc(C(F)(F)F)c1)NCC1CCCO1` (stereo unspecified) as the compound, how does the Potency read?
The Potency was “inactive”.

With `NC(=O)c1ccc(NC(=O)COC(=O)C2CC3C=CC2C3)cc1` (stereo unspecified) as the compound, how does the Potency read?
The Potency was inconclusive: 23.1 µM [activator, single point].

Which Potency does the source give for `Cc1cc(NC(=O)COC(=O)c2c(Cl)cccc2Cl)no1` here?
Its Potency is “inactive”.

For `c1ccc(-c2ccc(C3CCCN3)cc2)cc1` (stereo unspecified), which Potency is on record?
Its Potency is inconclusive: 23.1 µM [activator, partial curve].

Which Potency does the source give for `N=c1n(CCN2CCOCC2)c2ccccc2n1Cc1ccccc1Br` here?
Its Potency is “inactive”.

With `Cc1ccccc1Nc1nc(N)nc(COC(=O)c2cccc(S(=O)(=O)N(C)c3ccccc3)c2)n1` as the compound, how does the Potency read?
Its Potency is inconclusive: 20.6 µM [inhibitor, partial curve, poor fit].

With `O=C(O)c1cc(NS(=O)(=O)c2cccs2)cc(NS(=O)(=O)c2cccs2)c1` as the compound, how does the Potency read?
Its Potency is “inactive”.

With `COc1ccc(NCc2nnc(SCC(=O)Nc3cc(C(F)(F)F)ccc3Cl)o2)cc1` as the compound, how does the Potency read?
Its Potency is “inactive”.

With `CCn1c(SCC(=O)Nc2ccc(C(=O)OC)cc2)nc2cccnc21` as the compound, how does the Potency read?
Its Potency is inconclusive: 29.1 µM [inhibitor, single point].

With `COc1ccc(-n2nc(C(=O)NCC(=O)N3CCC(C)CC3)c3ccccc3c2=O)cc1` as the compound, how does the Potency read?
Its Potency is inconclusive: 2.91 µM [activator, full curve].

Which Potency does the source give for `CCCOc1ccc(CNC(=O)Cn2ncc3ccccc32)cc1` here?
Its Potency is inconclusive: 14.6 µM [activator, partial curve].

With `C/C(=C\c1cccc(Cl)c1)C(=O)c1c(C)cc(C)[nH]c1=O` as the compound, how does the Potency read?
Its Potency is inconclusive: 20.6 µM [inhibitor, partial curve].

For `CCn1c(SCc2ccccc2)nc2c1c(=O)[nH]c(=O)n2C`, which Potency is on record?
Its Potency is “inactive”.

For `COc1ccc(S(=O)(=O)Nc2ccccc2-c2nnn(CC(=O)Nc3ccccc3OC)n2)cc1`, which Potency is on record?
The Potency was inconclusive: 18.4 µM [inhibitor, partial curve].

For `CCOc1ccc(NCCC(O)c2ccc(F)cc2)cc1` (stereo unspecified), which Potency is on record?
The Potency was inconclusive: 5.8 µM [inhibitor, single point].

Which Potency does the source give for `O=C(CN1CCCCC1)c1c[nH]c2ccccc12` here?
The Potency was “inactive”.

With `Nc1c(C(=O)CSc2nccn2-c2ccc(Cl)cc2)c(=O)[nH]c(=O)n1C1CC1` as the compound, how does the Potency read?
Its Potency is “inactive”.

With `C[C@@H](NC(=O)c1[nH]cnc1C(=O)Nc1nccs1)c1ccccc1` as the compound, how does the Potency read?
The Potency was inconclusive: 18.3 µM [activator, single point].

Which Potency does the source give for `C/C(=N\NC(=O)Cc1ccc(Br)cc1)c1cccnc1` here?
Its Potency is inconclusive: 0.13 µM [inhibitor, partial curve, poor fit].

Which Potency does the source give for `C/C(=N/Nc1ccccc1C(=O)O)c1cccs1` here?
Its Potency is inconclusive: 20.6 µM [activator, partial curve].

With `COc1ccc(OC)c(N(CC(=O)N2CCCCC2)S(=O)(=O)c2ccc(OC)c(OC)c2)c1` as the compound, how does the Potency read?
Its Potency is inconclusive: 25.9 µM [inhibitor, partial curve, poor fit].

With `Cc1ccc2cc(C(=O)O)c(C)nc2c1` as the compound, how does the Potency read?
Its Potency is “inactive”.

Which Potency does the source give for `CN(CC(=O)Nc1ccccc1C(F)(F)F)CC(=O)N1CCCCCC1` here?
The Potency was “inactive”.

Which Potency does the source give for `CCn1c(SCC(=O)NCCc2ccccc2)nc2sc3c(c2c1=O)CCN(C)C3` here?
The Potency was inconclusive: 29.1 µM [inhibitor, single point].

With `O=C(CN1CCCC1)Nc1nnc(-c2cccs2)s1` as the compound, how does the Potency read?
Its Potency is inconclusive: 16.4 µM [activator, single point].

With `CC(=O)Nc1ccc(S(=O)(=O)Nc2ccc(Cc3ccncc3)cc2)cc1` as the compound, how does the Potency read?
Its Potency is “inactive”.

Which Potency does the source give for `Cc1ccsc1C(=O)OCC(=O)N1CCOCC1` here?
Its Potency is inconclusive: 20.6 µM [activator, partial curve].

With `COc1ccc(CCN2C(=O)c3ccccc3NC2c2cc(Cl)c(O)c(OC)c2)cc1` (stereo unspecified) as the compound, how does the Potency read?
The Potency was active: 7.3 µM.

With `O=C(N/N=C/C=C/c1ccc([N+](=O)[O-])cc1)c1cccs1` as the compound, how does the Potency read?
The Potency was “inactive”.

For `CCCC(=O)Nc1nnc(C2CCCO2)s1` (stereo unspecified), which Potency is on record?
The Potency was “inactive”.

With `Cn1c(CCc2nc3ccccc3[nH]2)nnc1SCC#N` as the compound, how does the Potency read?
Its Potency is active: 20.6 µM.

Which Potency does the source give for `CCN(CC)CCCN(C(=O)c1ccc(F)cc1)c1nc(-c2ccc(OC)cc2)cs1` here?
The Potency was “inactive”.

For `CN(C)CCn1c(=S)[nH]c2ccccc2c1=O`, which Potency is on record?
The Potency was “inactive”.

For `COc1ccc(C(CNC(=O)COc2ccc([N+](=O)[O-])cc2)N2CCCCC2)cc1` (stereo unspecified), which Potency is on record?
Its Potency is “inactive”.

For `COc1ccccc1/C=C/C(=O)NNC(=O)c1cc(C)oc1C`, which Potency is on record?
The Potency was inconclusive: 0.092 µM [activator, full curve, poor fit].

With `COc1ccc2[nH]c(C(=O)Nc3ccc4c(c3)OCO4)cc2c1` as the compound, how does the Potency read?
Its Potency is inconclusive: 2.91 µM [activator, partial curve].

For `CC(C)OC(=O)CSc1nc(N)c(C#N)cc1C#N`, which Potency is on record?
The Potency was inconclusive: 18.3 µM [activator, partial curve].

With `O=C(O)c1cc(N/N=C/c2cccnc2)ccc1Cl` as the compound, how does the Potency read?
The Potency was inconclusive: 23.1 µM [activator, partial curve].

Which Potency does the source give for `CC(C)CC(=O)Nc1c2c(nn1-c1cccc(Cl)c1)CS(=O)C2` (stereo unspecified) here?
Its Potency is “inactive”.

Which Potency does the source give for `O=C(Oc1ccc(Cl)c2cccnc12)c1cccnc1` here?
Its Potency is “inactive”.

For `O=C(COc1ccccc1)N1CCN(S(=O)(=O)c2ccc(Cl)cc2)CC1`, which Potency is on record?
The Potency was “inactive”.

For `Cc1nc(NC(=O)/C=C/c2ccco2)sc1C`, which Potency is on record?
Its Potency is inconclusive: 1.3 µM [activator, full curve].

For `CC1=CC2=NC(=O)/C(=C\c3ccc(-c4ccc(Cl)cc4)o3)C(=N)N2O1`, which Potency is on record?
The Potency was inconclusive: 23.1 µM [activator, single point].

Which Potency does the source give for `COc1ccc(C(=O)Nc2nnc(CCc3ccccc3)s2)c(OC)c1` here?
The Potency was “inactive”.
